{"source": "patent US20250041461A1", "about": "“[177LU] LUTETIUM-PSMA I&T COMPOSITION AND DOSIMETRY, KIT, METHOD OF MAKING, AND METHOD OF USING THEREOF” (Curium US LLC, priority 2023, published 2025)", "assay": "Plasma PK modelling (gamma counting, bi-exponential fit), cycles 1 and 3", "assay_type": "in vivo, human", "protocol": "PK plasma samples were collected at pre-Infusion, 1 h, 4 h, 24 h, 48 h, and 168 h, and counted for radioactivity. Blood samples were first centrifuged to extract plasma, and then the radioactivity in plasma was counted in a gamma counter.\nWhole blood samples were collected as detailed in the protocol Schedule of Events i.e. pre-injection, and then at 1 h, 4 h, 24 h, 48 h, and 168 h post-injection. The samples were first centrifuged to separate plasma, and the radioactivity in the plasma was then measured using a gamma counter. Plasma concentrations were subsequently fitted with a bi-exponential function to derive outcome parameters such as the half-life and clearance rate of the radiopharmaceutical in the plasma.\nGamma-counted plasma samples were quality controlled using the same ^177Lu reference standard by measuring 0.5 ml of the 100 mL in the saline bag. For each patient, triplicates were made and measured right before all plasma samples were counted. A long-lived isotope was also counted to ensure that the protocol was properly followed by each site. Similarly to the imaging standard, when the gamma counter efficiency factor differed by more than 10% compared to that at site set-up, an investigation was launched to determine the cause of this variation, and if it reflected a difference in data acquisition.\nPlasma data was fitted with a bi-exponential curve.\nBlood samples were obtained for 15 out of 16 patients at cycle 3. Patients 12-004 had blood taken only at the 24 h timepoint and, therefore, was not included in the plasma PK analysis. Consistent with Cycle 1, the time-course of plasma concentrations was similar among the patients. The ranges of PK parameters obtained at cycle 3 were similar to those from Cycle 1 data (Table 6). Cycle 3 PK plasma modeling results (n=15)", "key": {"[1]": {"conditions": "plasma, Cycle 1, individual patients"}}, "note": "Where “and” joins values, the source holds several entries; their conditions need not be identical. Equal values may be shown once. The source gives many values for each of these; only a part stands here.", "data": [{"compound": "O=C([O-])CC[C@H](NC(=O)N[C@@H](CCCCNC(=O)CCCCCCC(=O)NCCCC[C@@H](NC(=O)[C@@H](Cc1ccccc1)NC(=O)[C@@H](Cc1ccc(O)c(I)c1)NC(=O)CC[C@H](C(=O)[O-])N1CCN(CC(=O)[O-])CCN(CC(=O)[O-])CCN(CC(=O)[O-])CC1)C(=O)[O-])C(=O)[O-])C(=O)[O-].[177Lu+3].[H+].[H+].[H+].[H+].[H+]", "note": "[^177Lu-PSMA I&T, (3S,7S,26R,29R,32R,37R)-29-benzyl-32-(4-hydroxy-3-iodobenzyl)-5,13,20,28,31,34-hexaoxo-37-(4,7,10-tris(carboxymethyl)-1,4,7,10-tetraazacyclododecan-1-yl)-4,6,12,21,27,30,33-heptaazaheptatriacontane-1,3,7,26,37-pentacarboxylic acid; lutetium-177 (III)]", "values": [{"measurement": "plasma half-life, outlier", "setting": "cycle 1, patient 42-030", "value": 113.96, "unit": "h"}, {"measurement": "clearance", "setting": "cycle 1, plasma", "value": "13.06 ± 16.50", "unit": "L/h"}, {"measurement": "Distribution Half-Life", "setting": "[1]", "value": 1.30, "unit": "h"}, {"measurement": "Peak Concentration Value", "setting": "[1]", "value": "0.01 fIA/L and 0.06 fIA/L (2×) and 0.02 fIA/L and 0.07 fIA/L (2×)"}, {"measurement": "Peak Concentration Value", "setting": "plasma, cycle 3, max (n=15)", "value": 0.07, "unit": "fIA/L"}, {"measurement": "Peak Concentration Value", "setting": "plasma, cycle 3, median (n=15)", "value": 0.04, "unit": "fIA/L"}, {"measurement": "Peak Concentration Value", "setting": "plasma, cycle 3, min (n=15)", "value": 0.03, "unit": "fIA/L"}]}]}
